Measured data: PubChem BioAssay AID1259254 (NCATS, 2017)

Purpose: 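Finding genes that stop cells copying their DNA twice in one cycle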 (primary screen)
Cells: human HCT116 colorectal cancer cells
Reagent: single siRNA against human genes
Duration: 3 days
Detection: 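Nuclei stained with Hoechst and imaged; cell-cycle phase assigned by DNA content; G2 share scaled per plate, non-targeting siRNA 0%, GMNN siRNA 100%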
Scale: G2 robust z-score: higher = more G2 cells, more excess DNA replication
Call rule: 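An siRNA counts as active if its G2 robust z-score lies at least 5 MADs above the screen median; here such calls match roughly 38% of GMNN control or more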
The deposit covers about 59,000 reagents; this is an unselected part. In the full data, about 1,550 (2.6%) got an active call. 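G2 share is only a proxy for re-replication; each gene was hit by three separate siRNAs, and active genes were retested.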 The numbers tell different reagents against one gene apart. Not all columns of the deposit are shown. Reagent sequences are not shown. The record does not give: the amount of reagent.

CYP20A1 #1 | G2 robust z-score: 2.15; outcome: inactive
CYP20A1 #2 | G2 robust z-score: 0.633; outcome: inactive
CYP20A1 #3 | G2 robust z-score: -0.122; outcome: inactive
BPNT2 #1 | G2 robust z-score: 0.482; outcome: inactive
BPNT2 #2 | G2 robust z-score: 3.25; outcome: inactive
BPNT2 #3 | G2 robust z-score: 2.13; outcome: inactive
CNTN2 #1 | G2 robust z-score: -1.52; outcome: inactive
CNTN2 #2 | G2 robust z-score: 3.35; outcome: inactive
CNTN2 #3 | G2 robust z-score: -0.991; outcome: inactive
SIRT5 #1 | G2 robust z-score: -1.31; outcome: inactive
SIRT5 #2 | G2 robust z-score: -0.627; outcome: inactive
SIRT5 #3 | G2 robust z-score: 4.29; outcome: inactive

Next part; the last 2 above are carried over.
SIRT5 #2 | G2 robust z-score: -0.627; outcome: inactive
SIRT5 #3 | G2 robust z-score: 4.29; outcome: inactive
SATL1 #1 | G2 robust z-score: -0.295; outcome: inactive
SATL1 #2 | G2 robust z-score: 2.85; outcome: inactive
SATL1 #3 | G2 robust z-score: 0.379; outcome: inactive
MTMR1 #1 | G2 robust z-score: -0.383; outcome: inactive
MTMR1 #2 | G2 robust z-score: 2.34; outcome: inactive
MTMR1 #3 | G2 robust z-score: 0.709; outcome: inactive
